{"sequences": {"note": "By UniProt entry, the sequences of proteins in these tests, tags left out.", "UniProt P67870, whole entry": "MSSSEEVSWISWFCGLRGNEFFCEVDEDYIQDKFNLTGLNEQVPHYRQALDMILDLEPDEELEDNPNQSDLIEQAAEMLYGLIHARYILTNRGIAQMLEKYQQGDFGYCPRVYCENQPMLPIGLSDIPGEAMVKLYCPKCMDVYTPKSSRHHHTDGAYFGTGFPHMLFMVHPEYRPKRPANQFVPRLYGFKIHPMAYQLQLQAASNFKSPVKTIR", "UniProt P68400, whole entry": "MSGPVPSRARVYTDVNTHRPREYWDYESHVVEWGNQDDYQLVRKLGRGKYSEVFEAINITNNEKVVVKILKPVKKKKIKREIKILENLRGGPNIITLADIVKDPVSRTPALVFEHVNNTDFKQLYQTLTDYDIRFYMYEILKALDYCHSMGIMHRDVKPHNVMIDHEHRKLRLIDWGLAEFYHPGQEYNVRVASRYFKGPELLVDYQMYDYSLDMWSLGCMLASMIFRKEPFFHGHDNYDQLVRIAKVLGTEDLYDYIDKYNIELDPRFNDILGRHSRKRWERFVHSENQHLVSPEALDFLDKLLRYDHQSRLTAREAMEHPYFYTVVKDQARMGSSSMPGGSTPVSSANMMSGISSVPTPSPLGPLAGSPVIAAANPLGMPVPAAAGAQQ"}, "source": "patent US20020034767A1", "about": "“Compositions and methods for modulating the activity of G protein-coupled receptor kinases GRK5 and GRK6” (priority 1993, published 2002)", "origin": "cited, not measured here", "molecular_target": "casein kinase II (Homo sapiens, UniProt P67870+P68400)", "conditions": "cited from earlier work", "note": "Some of these results come from one statement about several compounds together."}
{"molecule": "NCCCCNCCCN", "note": "[spermidine]", "values": [{"measurement": "activation of casein kinase II", "value": "2-3 fold"}]}
